Test [1] deals with T1, ABA-responsive element binding factor 3 (ABF3), full length, yeast two-hybrid fusion (Arabidopsis) (UniProt Q9M7Q3).
T1 sequence: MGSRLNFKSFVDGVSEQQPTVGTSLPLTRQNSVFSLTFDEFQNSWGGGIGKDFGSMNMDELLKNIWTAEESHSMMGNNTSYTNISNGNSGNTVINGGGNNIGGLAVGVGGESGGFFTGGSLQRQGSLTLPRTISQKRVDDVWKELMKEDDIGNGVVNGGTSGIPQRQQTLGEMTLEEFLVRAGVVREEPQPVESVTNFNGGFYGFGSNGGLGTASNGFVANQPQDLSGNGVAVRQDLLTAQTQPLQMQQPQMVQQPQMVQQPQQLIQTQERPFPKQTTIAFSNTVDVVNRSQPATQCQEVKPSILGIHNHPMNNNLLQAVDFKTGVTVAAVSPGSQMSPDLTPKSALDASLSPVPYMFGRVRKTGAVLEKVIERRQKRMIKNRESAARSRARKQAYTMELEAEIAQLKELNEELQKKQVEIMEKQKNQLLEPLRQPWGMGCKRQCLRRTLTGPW
The test is described as follows: two-hybrid; yeast; pGBKT7 and pGADT7 fusions; growth on SD/-Trp/-Leu or SD/-Trp/-Leu/-His/-Ade.

In test [2] the target is T2, ABF3-EYFP^C (BiFC fusion) (Arabidopsis) (UniProt Q9M7Q3).
T2 sequence: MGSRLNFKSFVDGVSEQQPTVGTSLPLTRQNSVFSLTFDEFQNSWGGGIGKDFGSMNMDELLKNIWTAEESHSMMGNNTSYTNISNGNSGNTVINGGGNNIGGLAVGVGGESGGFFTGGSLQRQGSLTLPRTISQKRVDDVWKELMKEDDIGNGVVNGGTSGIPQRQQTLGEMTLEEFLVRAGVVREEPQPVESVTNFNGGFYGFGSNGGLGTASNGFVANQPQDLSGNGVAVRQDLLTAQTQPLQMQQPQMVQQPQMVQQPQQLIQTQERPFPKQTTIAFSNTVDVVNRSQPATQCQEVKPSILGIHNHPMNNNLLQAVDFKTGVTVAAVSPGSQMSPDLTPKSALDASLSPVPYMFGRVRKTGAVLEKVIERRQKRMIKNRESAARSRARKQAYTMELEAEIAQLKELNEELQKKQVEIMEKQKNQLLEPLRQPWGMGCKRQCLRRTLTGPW
Kind of test: split reporter; BiFC; ABF3-EYFP^C and NAC072-EYFP^N cotransformed into Arabidopsis mesophyll protoplasts; 24 h in darkness; YFP fluorescence by confocal microscopy.

Results are given in words; binding and its absence hold for the method and conditions named. For some of these results: In cells and extracts the contact can be indirect. Some results given as binding are weak or reduced against the parent protein; the word gives no strength. Where a sequence is shown, tags or fusion partners need not be part of it.

B1: NAC072-N (1-167aa), yeast two-hybrid fusion (domain or fragment, UniProt Q93VY3 1-167)
chain: MGVREKDPLAQLSLPPGFRFYPTDEELLVQYLCRKVAGYHFSLQVIGDIDLYKFDPWDLPSKALFGEKEWYFFSPRDRKYPNGSRPNRVAGSGYWKATGTDKIITADGRRVGIKKALVFYAGKAPKGTKTNWIMHEYRLIEHSRSHGSSKLDDWVLCRIYKKTSGSQ
For B1, the binding entry in test [1] is given as “binds”.

B2: NAC072 full length (NAC072-F), yeast two-hybrid fusion (protein, UniProt Q93VY3 1-297)
chain: MGVREKDPLAQLSLPPGFRFYPTDEELLVQYLCRKVAGYHFSLQVIGDIDLYKFDPWDLPSKALFGEKEWYFFSPRDRKYPNGSRPNRVAGSGYWKATGTDKIITADGRRVGIKKALVFYAGKAPKGTKTNWIMHEYRLIEHSRSHGSSKLDDWVLCRIYKKTSGSQRQAVTPVQACREEHSTNGSSSSSSSQLDDVLDSFPEIKDQSFNLPRMNSLRTILNGNFDWASLAGLNPIPELAPTNGLPSYGGYDAFRAAEGEAESGHVNRQQNSSGLTQSFGYSSSGFGVSGQTFEFRQ
Regarding B2, the binding result in test [1] was “binds”.

B3: NAC072-EYFP^N (BiFC fusion) (protein, UniProt Q93VY3 1-297)
chain: MGVREKDPLAQLSLPPGFRFYPTDEELLVQYLCRKVAGYHFSLQVIGDIDLYKFDPWDLPSKALFGEKEWYFFSPRDRKYPNGSRPNRVAGSGYWKATGTDKIITADGRRVGIKKALVFYAGKAPKGTKTNWIMHEYRLIEHSRSHGSSKLDDWVLCRIYKKTSGSQRQAVTPVQACREEHSTNGSSSSSSSQLDDVLDSFPEIKDQSFNLPRMNSLRTILNGNFDWASLAGLNPIPELAPTNGLPSYGGYDAFRAAEGEAESGHVNRQQNSSGLTQSFGYSSSGFGVSGQTFEFRQ
As for B3, in test [2], the binding entry is given as “binds”.

B4: NAC072-C (168-297aa), yeast two-hybrid fusion (domain or fragment, UniProt Q93VY3 168-297)
chain: RQAVTPVQACREEHSTNGSSSSSSSQLDDVLDSFPEIKDQSFNLPRMNSLRTILNGNFDWASLAGLNPIPELAPTNGLPSYGGYDAFRAAEGEAESGHVNRQQNSSGLTQSFGYSSSGFGVSGQTFEFRQ
With B4, the binding result in test [1] is listed as “binds”.
